US4748232A, “Peptide production and use thereof” (Suntory Limited, priority 1983, dated 1988)

Tested on: Male rats
Test: Diuretic and natriuretic action in anesthetized rats (urine collected via bladder cannula)
Assay type: in vivo, rat
Conditions: 1.21 μ mole, group V
Experimental: Male rats weighing 300 to 400 grams were anesthetized by intraperitoneal administration of pentobarbital at a dosage of 60 mg/kg, and used for tests of the α-hANP according to the method described in Life Sciences, Vol. 28, pp 89-94.
To keep the respiratory tract open, a tracheal cannula (PE-240 Clay-Adams) was inserted into the trachea. An arterial cannula (PE-50) was inserted into a femoral artery for measurement of the blood pressure, and a venous cannula was inserted into a femoral vein for the administration of Ringer's solution. 1.2 ml of Ringer's solution was injected for ten minutes, and subsequently, was constantly infused at a flow rate of 1.2 ml/hour.
A bladder cannula made of silastic tube with an inner diameter of 0.02 inches and an outer diameter of 0.037 inches was inserted into the bladder, and via the cannula, a urine sample was collected into a test tube. The collection of urine was carried out for 30 minutes before administration of the test compound, and every five minutes after the administration.
A predetermined amount of the test compound α-hANP was dissolved in 50 μl of sterilized physiological saline with 5 μg of bacitracin, and the solution was injected into the jugular vein.
The amount of α-hANP administered was 0.1 n mole (group II), 0.2 n mole (group III), or 0.4 n mole (group IV). The control group (group I) was administered 50 μl of physiological saline containing only bacitracin. For comparison, group V received 50 μl of physiological saline containing bacitracin and 1.21μ mole of furosemide, which is a known natriuretic agent.
Groups I to IV each consisted of three animals, and group V consisted of four animals.

SMILES: NS(=O)(=O)c1cc(C(=O)O)c(NCc2ccco2)cc1Cl [Furosemide, furosemide]
- Cl Excretion A (5 minutes after administration): 40242 ± 6859 n eq/min
- K Excretion A (5 minutes after administration): 6897 ± 392 n eq/min
- Na Excretion A (5 minutes after administration): 20018 ± 2990 n eq/min
- Na/K ratio A (5 minutes after administration): 2.90
- Cl Excretion B (before administration): 1708 ± 334 n eq/min
- K Excretion B (before administration): 1945 ± 465 n eq/min
- Na Excretion B (before administration): 1134 ± 283 n eq/min
- Na/K ratio B (before administration): 0.58
